# Results from one PubChem assay

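Plate-reader measure of the Venus reporter marking one vaccinia stage in infected cells (the cell line is not named here); read time unknown.
The test concentration is not given here.
Percent change in Venus reporter signal; lower (more negative) values mean stronger inhibition of that viral stage.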

Values are in %.
How 0% and 100% were set is not given here.
Common to all entries: measured here: Venus reporter, other viral stage.
This is a side read-out of the assay, for part of the compounds, not drawn at random.

| # | structure | activity change (Venus) (%) |
|---|---|---|
| 1 | `Cc1ccc(S(=O)(=O)N(C)C[C@H]2Oc3ccc(NC(=O)Nc4ccccc4)cc3CC(=O)N([C@@H](C)CO)C[C@H]2C)cc1` | -48.93 |
| 2 | `COc1cccc(-c2ccc3c(c2)[C@H]2[C@H](CCN2C(=O)C2CCCC2)[C@@H](CO)N3)c1` | -40.39 |
| 3 | `C[C@H]1CN([C@@H](C)CO)C(=O)Cc2cc(NC(=O)Cc3ccccc3)ccc2O[C@H]1CN(C)Cc1ccc(-c2ccccc2)cc1` | -41.15 |
| 4 | `C[C@@H]1CN([C@@H](C)CO)C(=O)Cc2cc(NC(=O)Nc3ccc(C(F)(F)F)cc3)ccc2O[C@H]1CN(C)Cc1ccc2c(c1)OCO2` | -32.85 |
| 5 | `COc1ccc(NC(=O)N2CC(=O)N3[C@H](CO)[C@@H](c4ccc(-c5ccc(C)cc5)cc4)[C@@H]3C2)cc1` | -35.15 |
| 6 | `C[C@@H]1CN([C@@H](C)CO)C(=O)c2cc(-c3ccc(F)cc3)cnc2O[C@H]1CN(C)CC1CCCC1` | -33.01 |
| 7 | `COc1ccc(C#Cc2ccc([C@@H]3[C@@H](CO)N4CCCCN(C(=O)c5ccncc5)C[C@H]34)cc2)cc1` | -28.33 |
| 8 | `C[C@H]1CN([C@@H](C)CO)C(=O)CCCn2cc(nn2)CO[C@@H]1CN(C)S(=O)(=O)c1ccc2ccccc2c1` | -23.04 |
| 9 | `COc1cccc(C#Cc2ccc([C@H]3[C@H](CO)N4C(=O)CN(C(=O)c5ccccc5)C[C@@H]34)cc2)c1` | -56.78 |
| 10 | `C[C@H](CO)N1C[C@H](C)[C@@H](CN(C)Cc2ccccc2)OCCCC[C@H](C)Oc2ccc(NC(=O)NC3CCCCC3)cc2C1=O` | -56.4 |
| 11 | `Cc1ccc(S(=O)(=O)N(C)C[C@@H]2OCCCC[C@H](C)Oc3ccc(NS(=O)(=O)c4c(C)noc4C)cc3C(=O)N([C@H](C)CO)C[C@@H]2C)cc1` | -40.81 |
| 12 | `C[C@H](CO)N1C[C@H](C)[C@@H](CN(C)C(=O)c2cc(Cl)cc(Cl)c2)OCc2ccccc2-c2c(n(C)c3ccccc23)C1=O` | -36.45 |
| 13 | `CC(C)CC#Cc1ccc2c(c1)O[C@H](CN(C)S(=O)(=O)c1ccc(F)cc1)[C@H](C)CN([C@@H](C)CO)S2(=O)=O` | -50.48 |
| 14 | `C=CCN1C(=O)[C@@]2(O[C@@H](CCn3cc([C@H](O)c4ccccc4)nn3)[C@H]([Si](C)(C)c3ccc(OC)cc3)[C@H]2C)c2ccccc21` | -41.39 |
| 15 | `CCC(=O)N1CCCCN2[C@H](C1)[C@@H](c1ccc(C#Cc3ccccc3F)cc1)[C@@H]2CO` | -42.17 |
| 16 | `COc1cccc(-c2ccc(C3[C@@H]4CN(C(=O)C5CC5)C[C@H]3N4)cc2)c1` (some centres not stated) | -86.8 |
| 17 | `C[C@@H]1CN([C@@H](C)CO)C(=O)c2cc(NC(=O)Cc3ccccc3)ccc2O[C@@H](C)CCCCO[C@H]1CN(C)Cc1ccccc1` | -45.95 |
| 18 | `COc1ccc(CN(C)C[C@H]2OCCCC[C@H](C)Oc3ccc(NC(=O)Nc4ccc(F)cc4)cc3C(=O)N([C@@H](C)CO)C[C@H]2C)cc1` | -42.03 |
| 19 | `COc1ccc(S(=O)(=O)N(C)C[C@@H]2Oc3ncc(C#Cc4ccc(OC)c(OC)c4)cc3C(=O)N([C@H](C)CO)C[C@@H]2C)cc1` | -28.57 |
| 20 | `O=C(Nc1ccc(C(F)(F)F)cc1)Nc1ccc2c(c1)[C@@H]1C[C@H](CC(=O)N3CCc4ccccc4C3)O[C@H](CO)[C@@H]1O2` | -41.96 |
| 21 | `COc1ccc(NC(=O)N2CCCCN3[C@H](C2)[C@@H](c2ccc(-c4ccccc4C)cc2)[C@@H]3CO)cc1` | -48.32 |
| 22 | `C[C@@H]1CCCCO[C@H](CN(C)Cc2ccc(C(F)(F)F)cc2)[C@@H](C)CN([C@H](C)CO)C(=O)c2cc(NS(=O)(=O)c3ccc(F)cc3)ccc2O1` | -33.25 |
| 23 | `COc1ccc2c3c([nH]c2c1)[C@H](CO)N(C(=O)c1ccccc1)CC31CCN(C)CC1` | -61.16 |
| 24 | `CC(C)NC(=O)Nc1ccc2c(c1)C(=O)N([C@H](C)CO)C[C@@H](C)[C@H](CN(C)Cc1ccc(C(F)(F)F)cc1)OCCCC[C@@H](C)O2` | -57.76 |
| 25 | `C[C@H](CO)N1C[C@H](C)[C@H](CN(C)C(=O)Nc2ccc(C(F)(F)F)cc2)Oc2ccc(NC(=O)Nc3ccc(C(F)(F)F)cc3)cc2CC1=O` | -34.37 |
| 26 | `O=C(C[C@@H]1C[C@H]2c3cc(NS(=O)(=O)c4ccc(F)cc4)ccc3O[C@H]2[C@H](CO)O1)NCc1ccc(-c2ccccc2)cc1` | -71.53 |
| 27 | `C[C@H]1CN([C@@H](C)CO)C(=O)c2cc(/C=C/c3ccccc3)cnc2O[C@@H]1CN(C)C(=O)c1ccc2c(c1)OCO2` | -49.57 |
| 28 | `CO[C@H]1CN(C)C(=O)c2ccc(NC(=O)c3nc4ccccc4s3)cc2OC[C@@H](C)N(Cc2cncnc2)C[C@@H]1C` | -51.45 |
| 29 | `O=C(C[C@@H]1CC[C@@H]2[C@H](COC[C@@H](O)CN2C(=O)Nc2ccc(Cl)c(Cl)c2)O1)NCc1ccc(Cl)c(Cl)c1` | -61.04 |
| 30 | `C[C@@H]1CN([C@H](C)CO)C(=O)c2cccc(NC(=O)Nc3ccc(C(F)(F)F)cc3)c2O[C@@H]1CN(C)Cc1ccc(Oc2ccccc2)cc1` | -35.16 |
| 31 | `C[C@H]1CN([C@@H](C)CO)C(=O)c2cc(Br)cnc2O[C@H]1CN(C)Cc1ccc(Oc2ccccc2)cc1` | -34.84 |
| 32 | `C[C@H]1CN([C@@H](C)CO)S(=O)(=O)c2ccc(C#CC3CCCC3)cc2O[C@@H]1CN(C)S(C)(=O)=O` | -54.94 |
| 33 | `COc1ccccc1C#Cc1ccc([C@H]2[C@H]3CN(CCC(F)(F)F)CCCCN3[C@H]2CO)cc1` | -44.7 |
| 34 | `O=C(Nc1cccc(F)c1)N1CCCCN2[C@H](CO)[C@H](c3ccc(-c4ccccc4F)cc3)[C@@H]2C1` | -38.75 |
| 35 | `CCCN(C)C[C@H]1OCCCC[C@@H](C)Oc2ccc(NS(=O)(=O)c3ccc(OC)cc3)cc2C(=O)N([C@H](C)CO)C[C@H]1C` | -24.81 |
| 36 | `CCCC#Cc1ccc2c(c1)O[C@@H](CN(C)C(=O)Nc1ccccc1F)[C@@H](C)CN([C@@H](C)CO)S2(=O)=O` | -59.57 |
| 37 | `COc1ccc(CN(C)C[C@@H]2OCCCC[C@H](C)Oc3ccc(NC(=O)Nc4ccc(OC)cc4)cc3C(=O)N([C@H](C)CO)C[C@@H]2C)cc1` | -60.16 |
| 38 | `N#Cc1cccc(-c2ccc([C@H]3[C@@H](CO)N4CCCCN(C(=O)Nc5cccc(F)c5)C[C@H]34)cc2)c1` | -59.87 |

4 of the entries, repeated:

- C[C@@H]1CCCCO[C@H](CN(C)Cc2ccc(C(F)(F)F)cc2)[C@@H](C)CN([C@H](C)CO)C(=O)c2cc(NS(=O)(=O)c3ccc(F)cc3)ccc2O1 : activity change (Venus) -33.25%
- C[C@H]1CN([C@@H](C)CO)C(=O)c2cc(/C=C/c3ccccc3)cnc2O[C@@H]1CN(C)C(=O)c1ccc2c(c1)OCO2 : activity change (Venus) -49.57%
- N#Cc1cccc(-c2ccc([C@H]3[C@@H](CO)N4CCCCN(C(=O)Nc5cccc(F)c5)C[C@H]34)cc2)c1 : activity change (Venus) -59.87%
- O=C(C[C@@H]1CC[C@@H]2[C@H](COC[C@@H](O)CN2C(=O)Nc2ccc(Cl)c(Cl)c2)O1)NCc1ccc(Cl)c(Cl)c1 : activity change (Venus) -61.04%

From PubChem BioAssay record AID1053133 (Broad Institute, 2014).